Laboratory results reported in PubChem BioAssay AID2685 (National Center for Advancing Translational Sciences (NCATS), 2010).
Some of the results follow. Shown are side measurements of this screen, not its main read-out; they come without a call. Most of these compounds were active or inconclusive in the main read-out, so they are no random draw. The note in brackets gives the kind of curve behind each potency; many fits are weak.

Test: qHTS Assay for Lipid Storage Modulators in Drosophila S3 Cells;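 for cell number change: cells counted by Cell Tracker Red CMTPX staining in the red channel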
Details: BODIPY lipid droplet fluorescence, 18-24 h; for cell number change: measured here: cell count max response, cells fed with added oleic acid
Procedure, shortened: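 Drosophila S3 cells got compounds at several concentrations plus oleic acid (400 uM solution). Laser-scanning cytometry with 488 nm excitation read lipid droplets at 500-530 nm and cells at 575-640 nm. Percent activity was relative to 20 uM Triacsin C.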

[1] = measured here: lipid fluorescence (Fed channel) AC50, cells fed with added oleic acid
[2] = measured here: cell number channel AC50, cells fed with added oleic acid

Row | Compound | cell number change [%] | AC50 [1] | AC50 [2]
1 | COc1ccc(N2CCN(c3ccc(N4C(=O)COCC4=O)cc3[N+](=O)[O-])CC2)cc1 | -13.1 | 16400 nM [falling, partial curve] | 
2 | COc1ccc(NC(=O)COC(=O)CNS(=O)(=O)/C=C/c2ccccc2)cc1OC | -27.2 |  | 
3 | O=C(CSc1ccc(Br)cc1)N1CCN(C(=O)c2ccco2)CC1 |  | 29100 nM [rising, partial curve, poor fit] | 
4 | Cc1ccc(C)c(-c2nnc(NC(=O)c3ccco3)o2)c1 | 9.44 |  | 731 nM [falling, single point]
5 | O=C(Nc1cccc(-c2ccc(N3CCOCC3)nn2)c1)c1ccccc1 |  | 411 nM [rising, full curve, poor fit] | 184 nM [rising, full curve, poor fit]
6 | Cc1cc(C)n(C(=O)C2CCCN2S(=O)(=O)c2ccc(Cl)cc2)n1 (stereo unspecified) | -8.75 | 2060 nM [falling, partial curve, poor fit] | 
7 | Cc1ccc(C(C)n2cc(C(=O)NCc3ccncc3)nn2)cc1 (stereo unspecified) | 31.5 | 23100 nM [rising, single point] | 8200 nM [rising, single point]
8 | CC(/C=N/Nc1nc2ccccc2[nH]1)=C\c1ccccc1 | -46.7 |  | 7310 nM [falling, partial curve]
9 | CCCCn1c(-c2ccc(F)c(F)c2)nc2cc3[nH]c(=O)c(C(C)C)nc3cc21 | 22.7 |  | 
10 | CC(C)c1ccc(NC(=S)Nc2ccc3cn[nH]c3c2)cc1 | -22 |  | 291 nM [rising, single point]
11 | CCCCn1c(N)c(N(CCOC)C(=O)CN2c3ccccc3CC2C)c(=O)[nH]c1=O (stereo unspecified) | 7.94 |  | 3660 nM [rising, single point]
12 | O=C(NCCCN1CCN(CCCNC(=O)c2cccc([N+](=O)[O-])c2)CC1)c1cccc([N+](=O)[O-])c1 |  |  | 731 nM [falling, single point]
13 | Cc1nnc(SC(C)C(=O)Nc2sc3c(c2C#N)CCCC3)[nH]c1=O (stereo unspecified) | 10.8 |  | 
14 | COC(=O)COc1ccc(/C=C2/NC(=O)N(CC(=O)OC)C2=O)cc1 | 11.8 |  | 411 nM [falling, single point]
15 | NC1=NC(=O)/C(=C/c2ccc(Cl)cc2Cl)S1 | -9.18 | 3660 nM [falling, full curve, poor fit] | 
16 | COc1ccccc1N(CC(=O)N1CCCCC1)S(=O)(=O)c1ccccc1 | 0.643 | 580 nM [falling, partial curve, poor fit] | 
17 | CCOC(=O)C1CCCN(c2oc(-c3ccc(OC)cc3)nc2C#N)C1 (stereo unspecified) | 51.2 |  | 5170 nM [rising, partial curve, poor fit]
18 | CN(Cc1ccon1)C(=O)CC1C(=O)NCCN1Cc1ccc(F)c(F)c1 (stereo unspecified) | -3.18 | 1460 nM [falling, partial curve] | 
19 | Cc1ccc(C(=O)C2CCN(CC(=O)Nc3ccc(N(C)C)cc3)CC2)cc1 | 23.4 | 10300 nM [rising, partial curve] | 
20 | CC(OC(=O)Nc1cccc(Cl)c1)C(=O)O (stereo unspecified) |  | 6510 nM [falling, single point] | 

Row | Compound | cell number change [%] | AC50 [1] | AC50 [2]
21 | CCOC(=O)C1=C(CSc2nc3c(cc2C#N)CN(C)CC3)OC(N)=C(C#N)C1c1ccncc1 (stereo unspecified) | 28.5 | 29.1 nM [rising, full curve, poor fit] | 
22 | COc1cc(-c2nn3c(COc4ccccc4)nnc3s2)cc(OC)c1OC | -11.6 | 731 nM [rising, full curve, poor fit] | 
23 | COc1cccc(CN2CCN(C(=O)c3cc(-c4cccnc4)nc4ccc(C)cc34)CC2)c1 | -16 | 14600 nM [falling, partial curve] | 
24 | CCCCn1c(N)c(N(CCC(C)C)C(=O)c2sc3nc4n(c(=O)c3c2C)CCC4)c(=O)[nH]c1=O | 2.44 | 1460 nM [falling, partial curve] | 
25 | Cc1cccc(C)c1NC(=S)N/N=C/c1ccccc1C(=O)O | -9.96 | 731 nM [falling, full curve, poor fit] | 
26 | COc1ccccc1NS(=O)(=O)c1ccc(C(=O)NCC2(N(C)C)CCCCC2)cc1 | -10.7 |  | 
27 | C/C(=C\C(=O)c1ccccc1)Nc1ccc(N2CCOCC2)cc1 | -4.94 | 820 nM [falling, partial curve] | 92 nM [rising, full curve]
28 | CC1CCCC(NC(=O)COC(=O)c2ccc3ccccc3n2)C1C (stereo unspecified) |  | 2310 nM [falling, partial curve] | 
29 | N#C/C(C(=O)NCc1ccco1)=C1/SC(Cc2ccc(Cl)cc2)C(=O)N1c1ccccc1 (stereo unspecified) | 3.57 |  | 
30 | COc1ccccc1C(=O)C1CCCN(C(=O)Nc2ccccc2F)C1 (stereo unspecified) | 8.91 | 5.17 nM [rising, full curve, poor fit] | 
31 | N#Cc1cc2ccccc2nc1SCC(=O)Nc1ccc(S(=O)(=O)N2CCCC2)cc1 | -2.17 | 1030 nM [rising, partial curve] | 
32 | CC(C(=O)Nc1sc2c(c1C(=O)NCc1ccco1)CCCC2)N1C(=O)c2ccccc2C1=O (stereo unspecified) | 51.1 | 4110 nM [rising, partial curve] | 1840 nM [rising, full curve]
33 | Cc1ccc(/C=C/C(=O)Nc2nccs2)o1 | -14.3 |  | 
34 | CCn1c(SCC(=O)n2c(C)c(C)c3ccccc32)nnc1-c1ccco1 | -36.7 | 1160 nM [falling, full curve] | 29100 nM [falling, partial curve, poor fit]
35 | O=C(c1ccccc1)c1ccc(Cn2cc(-c3ccccc3)nn2)cc1 | -15.9 | 184 nM [falling, full curve, poor fit] | 
36 | O=C(CCC(=O)N1CCOc2ccccc21)N1CCOCC1 | -2.88 | 4.11 nM [rising, full curve, poor fit] | 
37 | CN(CC(=O)Nc1ccc(Cl)c(C(F)(F)F)c1)C(=O)c1ccc2c(c1)NC(=O)CS2 | -10.7 | 2060 nM [falling, partial curve, poor fit] | 291 nM [falling, partial curve, poor fit]
38 | CC1(C)Oc2ccc3ccc(=O)oc3c2/C(=C/NCCO)C1=O | -19 | 29100 nM [rising, single point] | 
39 | S=c1nc(-c2cc(Cl)ccc2Cl)[nH][nH]1 | 11.9 | 580 nM [falling, single point] | 
40 | Cc1cc(C)cc(N(CC(=O)N2CCn3c2nc2ccccc23)S(=O)(=O)c2c(C)noc2C)c1 | 45.3 | 29100 nM [rising, partial curve] | 29100 nM [rising, single point]

Row | Compound | cell number change [%] | AC50 [1] | AC50 [2]
41 | Cc1cccc(Cn2nc(C(C)(C)C)cc2C(=O)N2CCOCC2)c1 | -5.56 |  | 
42 | CCOc1ccc(-c2n[nH]c(C(=O)NN)c2C)cc1 |  | 1640 nM [falling, partial curve, poor fit] | 
43 | CC(=O)c1cccc(NCC(=O)N2CCN(S(=O)(=O)c3ccccc3)CC2)c1 | -29.5 | 29100 nM [falling, single point] | 
44 | O=C(Nc1ccc(NC(=O)c2cccnc2)cc1)c1ccccc1 | 2.56 | 103 nM [falling, full curve, poor fit] | 
45 | O=C(NCCCn1ccnc1)c1cn(Cc2ccc(F)cc2)nn1 | 75.2 | 18400 nM [rising, partial curve] | 9200 nM [rising, partial curve]
46 | CCn1c(=O)c(C(=O)NC(C)C)c(O)c2ccccc21 | -3.7 | 6510 nM [rising, single point] | 
47 | CCN(CC(=O)Nc1c(F)cccc1F)C(=O)CCC(=O)c1ccc(F)cc1 | -20.8 |  | 
48 | O=C(Nc1ccc2c(c1)OCCO2)c1cc2sccc2n1Cc1ccccc1 | -46.5 | 1640 nM [falling, partial curve] | 3660 nM [falling, full curve]
49 | CC1(C)CC(N=Cc2c(O)n(Cc3ccc4c(c3)OCO4)c(=O)c3ccccc23)CC(C)(C)N1 | -37.7 |  | 32600 nM [falling, single point]
50 | COc1cc(NC(=O)c2ccc(N3CC4CC(C3)c3cccc(=O)n3C4)c(NC(=O)c3ccncc3)c2)cc(OC)c1OC (stereo unspecified) | 6.05 |  | 
51 | CN1CCN(S(=O)(=O)c2ccc(NC(=O)C(C)(C)C)cc2)CC1 |  |  | 6510 nM [falling, single point]
52 | COc1cc(C(=O)NC2CCCCC2)ccc1OC1CCN(C(C)=O)CC1 | 9.49 | 29100 nM [falling, single point] | 4.11 nM [rising, full curve, poor fit]
53 | Cc1ccc(C(=O)Nc2ccccc2N2CCOCC2)cc1S(=O)(=O)N1CCOCC1 | 15.5 | 14.6 nM [rising, full curve, poor fit] | 4.11 nM [rising, full curve, poor fit]
54 | O=C(CSc1nnc(-c2cccs2)o1)c1cccs1 | -9.87 | 7310 nM [falling, partial curve, poor fit] | 
55 | O=C(c1cccs1)N1CCCC(c2nc3c(nnn3Cc3ccccc3)c(=O)[nH]2)C1 (stereo unspecified) | -44 | 14600 nM [falling, partial curve, poor fit] | 8200 nM [falling, partial curve]
56 | NC(=O)C1CCN(C(=O)COc2ccc3ccc(=O)oc3c2)CC1 | -15.1 | 164 nM [falling, full curve, poor fit] | 
57 | CCn1c(=O)n(CC)c2cc(NC(=O)c3ccccc3Cl)ccc21 | -16.9 |  | 
58 | O=C(COC(=O)CCSc1ccccc1)NCc1ccccc1 | 43.9 |  | 3660 nM [rising, full curve]

By substructure: the compounds so far with a tert-butyl group
Row | Compound | cell number change [%] | AC50 [1] | AC50 [2]
41 | Cc1cccc(Cn2nc(C(C)(C)C)cc2C(=O)N2CCOCC2)c1 | -5.56 |  | 
51 | CN1CCN(S(=O)(=O)c2ccc(NC(=O)C(C)(C)C)cc2)CC1 |  |  | 6510 nM [falling, single point]

Limited to AC50 [1], for some of the entries so far:
Row | Compound | AC50 [1]
44 | O=C(Nc1ccc(NC(=O)c2cccnc2)cc1)c1ccccc1 | 103 nM [falling, full curve, poor fit]
45 | O=C(NCCCn1ccnc1)c1cn(Cc2ccc(F)cc2)nn1 | 18400 nM [rising, partial curve]
